The whole screen tested about 52,000 sequences, of which about 210 (0.4%) were called active.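 The calls were made as follows: active = gene whose silencing raises cell survival under the drug, median off-target-corrected z-score across its silencing RNAs 2 or more; inactive = the rest.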 The list shows a part of the results.
Assay: Resistance to Poly (ADP-Ribose) Polymerase inhibitor: Gene Identification via Genome-wide siRNA Screen
Conditions: mouse BRCA2 R2336H ES cells, olaparib, CellTiter-Glo viability; hits give high values
In short: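 Genome-wide siRNA screen (3 siRNAs/gene, 20 nM) in mouse ES cells carrying hypomorphic BRCA2 R2336H; olaparib 500 nM added 48 h post-transfection, CellTiter-Glo viability 72 h later. Normalized to plate-median negative control; MAD z-scores, gene median, seed-adjusted.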

Row | Sequence | z-score
1 | GGAAUGACCAAGAAACAACTT against Recql4 | inactive: -0.392
2 | GGAUCAAAAACACAUACUUTT against Emr4 | inactive: -1.79
3 | GGCCCGGAAACCUUUGCAUTT against Efna4 | inactive: -0.0635
4 | GCUUGUCAAGUUUGUGAGCTT against Sec14l4 | inactive: -0.515
5 | CCUACUCUAUCCCAAGGUCTT against 1700027D21Rik | inactive: 1.08
6 | GCUUGAUGGUAAAAAGGUUTT against Spg3a | inactive: 0.836
7 | GGAGACCUCAGCUGAUAUUTT against 1110006I15Rik | inactive: 0.669
8 | GGGUUGGCUGAGGUAAUGGTT against G431004K08Rik | inactive: -0.874
9 | GGCUGCUUAACCUUGAUAATT against 4932412H11Rik | inactive: -2.24
10 | GGGCAAAACCAUCUUCCGGTT against Scn5a | inactive: 0.0326
11 | GGGUAUUCUUUCAAUCAUATT against Fgf12 | inactive: -1.32
12 | GGCUCUUGUUGUGAAGAAGTT against Tm4sf8 | inactive: -0.48
13 | GGUCAAAGUCUAGGAGUUUTT against Spp1 | inactive: 0.364
14 | GCUGAAUCACUACCAGUCATT against Zfp462 | inactive: 0.0788
15 | CCUCAUGUUAAUCUGGAGATT against Gabre | inactive: -0.848
16 | GGAAGAUCUGAAGUCAAUCTT against Mvk | inactive: 0.321
17 | GCAAACAAUGCAACAAGCATT against Adam1b | inactive: 0.273
18 | CCUCACCAGGUAAAUUUUUTT against Ssa2 | inactive: 0.157
19 | GGCUUUCAAGACACUUCUUTT against Ccl6 | inactive: 0.258
20 | GGCAUCAAUAACUCAACAUTT against Slc5a8 | inactive: 0.653
21 | GGAUGACAGUGGGAAGAAGTT against 1110029E03Rik | inactive: 0.305
22 | GGAUUAGAGGUUAUGGUAATT against A630098G03Rik | inactive: -1.61
23 | CGUGGAAAGAAAAUUAUCATT against Psmd11 | inactive: -2.85
24 | GGGUGGAAGAAAGGUAAAGTT against Cd68 | inactive: -0.876
25 | GGCACGAAGUCCGAGAAAUTT against Hs2st1 | inactive: -0.726
26 | CCAUCGUCUAUCAUUUAGUTT against Six4 | inactive: 1.14

Row | Sequence | z-score
27 | GGUUCUAAUUAGAGAAACATT against Tcte1 | inactive: 0.0177
28 | CCGUAUGGACUGGUUUACUTT against Chrdl1 | inactive: 0.484
29 | GGAAGAUUUCCUCUCCAAGTT against Dnajd1 | inactive: -0.48
30 | CCAACCUAAACAAUGCAUUTT against Actn4 | inactive: -0.603
31 | GGCAACUUCAUGGGUUUCATT against Tyr | inactive: 0.142
32 | GGAUUUGAUUCCGCCAACGTT against Pon2 | inactive: -0.0028
33 | GCCAAGUGGUGACAUCAACTT against Ralgds | inactive: -0.711
34 | GGACAGCAAGACAGAAAACTT against Csf2rb2 | inactive: 0.00978
35 | GCCAUGACCAUCUUUCUCUTT against Olfr1413 | inactive: 1.79
36 | UACUCUGGUAACACCCACUTT against Olfr98 | inactive: 0.252
37 | GCACGGUCAAGUUUUGAUUTT against Prkaa2 | inactive: 0.432
38 | GGGUCCAAAAGAAAAGUGUTT against 2810002I04Rik | inactive: 0.388
39 | CGUCAUUCACCCUAAGCCATT against Odd1 | inactive: 1.43
40 | GGUAAAUGAUAUUCAUGGUTT against Pdlim2 | inactive: 0.311
41 | GGAAAUCUUACAGACUGAGTT against Grid2 | active: 2.5
42 | GGAGUUCGUCAACAAGAAGTT against Dll1 | inactive: 1.41
43 | GCAACGGAGGGUCAUUUCATT against 5730509C05Rik | inactive: -0.609
44 | GGAUUUGCUGAUUUGUCAATT against Dufd1 | inactive: 1.11
45 | GGCAAGGUGUUUUAUAACATT against Flt4 | inactive: 1.1
46 | GGGUAGAAAUGAGAAGUUCTT against Tcf20 | inactive: 0.789
47 | CCCAAAUAUACCUGUGACATT against Txndc8 | inactive: -1.37
48 | GCCUACAGGAGUGAGAUAATT against Gm1082 | inactive: -2.62
49 | GGUGGAAUUCAUCAAGAACTT against Kcnc1 | inactive: 0.333
50 | GGACCUAAAGAUUGUCUUCTT against Stam | inactive: -2.44
51 | GCAGAUCAAAUUUAGCUGATT against D8Ertd594e | inactive: 0.735
52 | GGGUGGAGAAAAAAUGUACTT against 2410002O22Rik | inactive: -1.06

In a second layout: results already given.

| Row | Sequence | z-score |
| --- | --- | --- |
| 37 | GCACGGUCAAGUUUUGAUUTT against Prkaa2 | inactive: 0.432 |
| 38 | GGGUCCAAAAGAAAAGUGUTT against 2810002I04Rik | inactive: 0.388 |

Rewritten in markdown: entries from further up.

| Row | Sequence | z-score |
| --- | --- | --- |
| 35 | GCCAUGACCAUCUUUCUCUTT against Olfr1413 | inactive: 1.79 |
| 36 | UACUCUGGUAACACCCACUTT against Olfr98 | inactive: 0.252 |
